Measured values reported in PMC3833267.
Results are given in words; binding and its absence hold for the method and conditions named. In cells and extracts the contact can be indirect. Some binding calls cover weakened binding; strength is not graded here.

The chains behind the UniProt entries cited, without tags or fusion partners. Where a name states a change or a piece, a line headed by the entry shows the natural chain unless it says otherwise. A line that says so, or that is headed by a name, gives the form on record, which may keep a tag or linker.
UniProt P40763: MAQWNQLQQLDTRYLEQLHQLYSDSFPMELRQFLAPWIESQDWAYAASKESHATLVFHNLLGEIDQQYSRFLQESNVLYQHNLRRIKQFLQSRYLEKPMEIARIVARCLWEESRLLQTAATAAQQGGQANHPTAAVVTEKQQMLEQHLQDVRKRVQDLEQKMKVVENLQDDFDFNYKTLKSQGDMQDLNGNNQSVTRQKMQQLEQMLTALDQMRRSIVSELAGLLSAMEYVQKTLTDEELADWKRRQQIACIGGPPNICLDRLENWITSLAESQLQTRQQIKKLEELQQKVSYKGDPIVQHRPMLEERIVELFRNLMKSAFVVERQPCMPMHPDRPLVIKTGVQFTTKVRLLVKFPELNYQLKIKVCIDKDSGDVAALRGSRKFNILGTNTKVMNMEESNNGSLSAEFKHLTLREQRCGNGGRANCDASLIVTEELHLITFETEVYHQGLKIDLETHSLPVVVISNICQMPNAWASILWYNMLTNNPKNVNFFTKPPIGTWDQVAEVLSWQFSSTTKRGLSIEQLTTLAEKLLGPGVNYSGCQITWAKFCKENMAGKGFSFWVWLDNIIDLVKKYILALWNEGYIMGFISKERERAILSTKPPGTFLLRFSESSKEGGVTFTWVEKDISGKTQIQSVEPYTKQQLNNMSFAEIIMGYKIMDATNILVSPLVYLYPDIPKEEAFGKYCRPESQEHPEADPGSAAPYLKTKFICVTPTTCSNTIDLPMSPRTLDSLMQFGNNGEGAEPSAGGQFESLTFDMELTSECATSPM
STAT3-YF-YFP (P40763, form named): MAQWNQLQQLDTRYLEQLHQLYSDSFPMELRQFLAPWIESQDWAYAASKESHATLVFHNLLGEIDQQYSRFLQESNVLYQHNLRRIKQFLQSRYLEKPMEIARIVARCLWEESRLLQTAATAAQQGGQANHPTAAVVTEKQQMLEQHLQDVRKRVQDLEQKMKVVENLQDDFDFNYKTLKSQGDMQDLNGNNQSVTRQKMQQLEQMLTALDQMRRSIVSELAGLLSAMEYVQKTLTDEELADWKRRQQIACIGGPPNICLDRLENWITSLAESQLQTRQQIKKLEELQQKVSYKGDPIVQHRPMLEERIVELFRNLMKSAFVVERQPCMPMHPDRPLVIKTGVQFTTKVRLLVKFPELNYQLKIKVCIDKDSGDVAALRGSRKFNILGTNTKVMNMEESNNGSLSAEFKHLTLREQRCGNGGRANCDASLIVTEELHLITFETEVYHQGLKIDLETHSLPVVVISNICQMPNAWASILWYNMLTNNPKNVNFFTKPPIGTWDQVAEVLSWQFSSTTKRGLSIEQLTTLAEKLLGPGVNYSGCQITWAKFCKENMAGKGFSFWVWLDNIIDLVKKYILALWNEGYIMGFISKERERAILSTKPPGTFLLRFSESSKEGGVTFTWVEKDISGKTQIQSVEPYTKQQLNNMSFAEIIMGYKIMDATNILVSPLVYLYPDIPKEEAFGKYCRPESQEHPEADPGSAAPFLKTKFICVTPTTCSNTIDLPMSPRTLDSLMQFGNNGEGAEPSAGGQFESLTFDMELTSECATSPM

Target: T1, biotinylated gp130-receptor-peptide containing phosphotyrosine 767
T1 sequence (peptide, phosphotyrosine at 767; beta-alanine between biotin and the N-terminus): TVVHSGYRHQVPSV
Test: pull-down; peptide-precipitation: biotinylated gp130 pY767 peptide (3 nmol) on NeutrAvidin agarose, incubated with 250 ug lysate of transfected HEKgp80 cells (IL-6 20 ng/ml 30 min or unstimulated) over night at 4°C in storage buffer (150 mM NaCl, 50 mM Tris-HCl pH 7.5, 0.1 mM EDTA, 10% glycerin, 0.5% Nonidet P40); immunoblot with STAT3 antibody; only the target purified

In the case of “STAT3-YF-YFP (from UniProt P40763 1-770)”, the binding is reported as “binds”.
In the case of STAT3-YFP (from UniProt P40763 1-770), the binding is reported as “binds”.
